Reference: publication PMC6398978
Results are given in words; binding and its absence hold for the method and conditions named. In cells and extracts the contact can be indirect. Some binding calls cover weakened binding; strength is not graded here. Values belong to the binder of their own block, whether it stands above or below them.

By UniProt entry, the sequences of proteins in these tests, tags left out.
UniProt Q9WTL8: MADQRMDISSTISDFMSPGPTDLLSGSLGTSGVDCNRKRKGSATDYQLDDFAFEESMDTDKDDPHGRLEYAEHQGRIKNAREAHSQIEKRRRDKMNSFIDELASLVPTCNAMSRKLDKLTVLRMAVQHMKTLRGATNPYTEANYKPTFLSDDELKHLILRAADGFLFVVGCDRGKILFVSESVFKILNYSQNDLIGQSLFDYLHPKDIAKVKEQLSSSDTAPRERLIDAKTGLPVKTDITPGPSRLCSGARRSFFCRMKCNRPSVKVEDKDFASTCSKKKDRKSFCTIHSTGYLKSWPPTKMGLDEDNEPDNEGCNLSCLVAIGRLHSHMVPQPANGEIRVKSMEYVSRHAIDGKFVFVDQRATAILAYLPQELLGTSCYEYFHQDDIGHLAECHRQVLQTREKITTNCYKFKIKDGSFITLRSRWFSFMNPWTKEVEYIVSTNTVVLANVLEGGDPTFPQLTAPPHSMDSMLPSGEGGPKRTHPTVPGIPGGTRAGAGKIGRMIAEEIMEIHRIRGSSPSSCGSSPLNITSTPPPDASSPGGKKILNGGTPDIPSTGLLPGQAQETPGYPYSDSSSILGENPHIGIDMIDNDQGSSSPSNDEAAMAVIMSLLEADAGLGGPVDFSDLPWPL
UniProt P10085: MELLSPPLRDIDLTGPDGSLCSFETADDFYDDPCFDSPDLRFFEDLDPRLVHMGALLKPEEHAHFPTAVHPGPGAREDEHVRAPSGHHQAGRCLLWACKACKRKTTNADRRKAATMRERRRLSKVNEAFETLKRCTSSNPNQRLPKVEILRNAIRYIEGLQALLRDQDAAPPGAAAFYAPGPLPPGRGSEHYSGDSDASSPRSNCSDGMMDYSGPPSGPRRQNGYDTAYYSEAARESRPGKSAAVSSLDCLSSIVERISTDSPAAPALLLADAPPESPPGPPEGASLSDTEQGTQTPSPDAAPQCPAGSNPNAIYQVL

Key:
VN-BMAL1 = VN-BMAL1 (UniProt Q9WTL8); assay: split reporter; Venus BiFC in C2C12 myoblasts; 250 ng of each VN and VC plasmid co-transfected with 100 ng mCherry; Leica SP8 confocal microscope 24 hr post transfection
VN-MYOD1 = VN-MYOD1 (UniProt P10085); assay: split reporter; Venus BiFC with the fragments swapped (VN-MYOD1 with VC-CLOCK or VC-BMAL1); data not shown

- binding (VN-BMAL1): no binding
B1: VC-BMAL2 (protein, UniProt Q2VPD4 1-579)
chain: MEFPRKRRGRDSQPLQSEFMTDTTVESLPQNPFASLLSTRTGVSAPSGIREAHSQMEKRRRDKMNHLIQKLSSMIPPHIPTAHKLDKLSVLRRAVQYLRSLRGMTELYLGENSKPSFIQDKELSHLILKAAEGFLFVVGCERGRIFYVSKSVSKTLRYDQASLIGQNLFDFLHPKDVAKVKEQLSCDGSPREKPIDTKTSQVYSHPYTGRPRMHSGSRRSFFFRMKSCTVPVKEEQPCSSCSKKKDHRKFHTVHCTGYLRSWPLNVVGMEKESGGGKDSGPLTCLVAMGRLHPYIVPQKSGKINVRPAEFITRFAMNGKFVYVDQRATAILGYLPQELLGTSCYEYFHQDDHSSLTDKHKAVLQSKEKILTDSYKFRVKDGAFVTLKSEWFSFTNPWTKELEYIVSVNTLVLGRSETRLSLLHCGGSSQSSEDSFRQSCINVPGVSTGTVLGAGSIGTDIANEVLSLQRLHSSSPEDASPSEEVRDDCSVNGGNAYGPASTREPFAVSPSETEVLEAARQHQSTEPAHPHGPLPGDSAQLGFDVLCDSDSIDMAAFMNYLEAEGGLGDPGDFSDIQWAL

- binding (VN-MYOD1): binds
B2: VC-CLOCK (protein, UniProt O08785 1-855)
chain: MVFTVSCSKMSSIVDRDDSSIFDGLVEEDDKDKAKRVSRNKSEKKRRDQFNVLIKELGSMLPGNARKMDKSTVLQKSIDFLRKHKETTAQSDASEIRQDWKPTFLSNEEFTQLMLEALDGFFLAIMTDGSIIYVSESVTSLLEHLPSDLVDQSIFNFIPEGEHSEVYKILSTHLLESDSLTPEYLKSKNQLEFCCHMLRGTIDPKEPSTYEYVRFIGNFKSLTSVSTSTHNGFEGTIQRTHRPSYEDRVCFVATVRLATPQFIKEMCTVEEPNEEFTSRHSLEWKFLFLDHRAPPIIGYLPFEVLGTSGYDYYHVDDLENLAKCHEHLMQYGKGKSCYYRFLTKGQQWIWLQTHYYITYHQWNSRPEFIVCTHTVVSYAEVRAERRRELGIEESLPETAADKSQDSGSDNRINTVSLKEALERFDHSPTPSASSRSSRKSSHTAVSDPSSTPTKIPTDTSTPPRQHLPAHEKMTQRRSSFSSQSINSQSVGPSLTQPAMSQAANLPIPQGMSQFQFSAQLGAMQHLKDQLEQRTRMIEANIHRQQEELRKIQEQLQMVHGQGLQMFLQQSNPGLNFGSVQLSSGNSNIQQLTPVNMQGQVVPANQVQSGHISTGQHMIQQQTLQSTSTQQSQQSVMSGHSQQTSLPSQTPSTLTAPLYNTMVISQPAAGSMVQIPSSMPQNSTQSATVTTFTQDRQIRFSQGQQLVTKLVTAPVACGAVMVPSTMLMGQVVTAYPTFATQQQQAQTLSVTQQQQQQQQQPPQQQQQQQQSSQEQQLPSVQQPAQAQLGQPPQQFLQTSRLLHGNPSTQLILSAAFPLQQSTFPPSHHQQHQPQQQQQLPRHRTDSLTDPSKVQPQ
